Reference: PubChem BioAssay AID192 (DTP/NCI, 2004)
The list shows only some results of the screen, not a fair sample: it gathers tests that were run many times, whatever their T/C, doses with no T/C, and many T/C values between a quarter and a half above the control. Further doses and runs are listed elsewhere. T/C: endpoint of the treated group in % of that of the vehicle group. Some entries give survivors of the animals treated and no T/C: the source holds a T/C of zero for them, seemingly a mark for toxic or unscored doses. Some doses without a T/C left all or most animals alive at the check, yet need not have been tolerated: survival well below the control is almost never listed, so the zero probably covers shortened survival too. Survivors were counted at the toxicity check, usually on the fifth day, unless a day is given; later deaths do not show. Schedules are NCI's codes, taken here to give the interval after Q, in days (D) or hours (H), and the number of doses after X. Counts like (3×) say how often a value occurs here. Some molecules as drawn cover several salts, stereoisomers or complexes of the source; a dose is that of the sample tested. Some doses were run more than once; the results are listed from low to high. Where survival is the endpoint, this PubChem deposit counts one and a half times the control or more as active, and values a quarter to a half above the control carry no call in these data; other NCI protocols may use other cut-offs. Some T/C values carry the count of animals alive at the toxicity check (mostly the fifth day); without a count, all were alive then.

Test system: BDF1 mice, B16 melanoma ip, median survival T/C
Assay: NCI In Vivo Anticancer Drug Screen. Data for tumor model B16 Melanoma (intraperitoneal) in B6D2F1 (BDF1) mice
Conditions: T/C endpoint: median survival time, schedule: Q01DX009 (ip), higher T/C = longer survival
How it was run: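 Values are ratios of treated (T) to vehicle-control (C) measurements of survival or tumor size in tumor-bearing mice.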

[1] = dose: 200.0 mg/kg/injection, vehicle: Klucel (hydroxypropylcellulose) (HPC)
[2] = dose: 400.0 mg/kg/injection, vehicle: Klucel (hydroxypropylcellulose) (HPC)
[3] = dose: 10.0 mg/kg/injection, vehicle: saline
[4] = dose: 100.0 mg/kg/injection, vehicle: Klucel (hydroxypropylcellulose) (HPC)

## CCCCCCCCCCCC(N)c1ccccc1 (configuration not stated)
dose: 50.0 mg/kg/injection, vehicle: saline
  survivor count: 0 of 6
dose: 75.0 mg/kg/injection, vehicle: saline
  survivor count: 0 of 6
dose: 115.0 mg/kg/injection, vehicle: saline
  survivor count: 0 of 6
dose: 170.0 mg/kg/injection, vehicle: saline
  survivor count: 0 of 6

## CC1OC(O[C@H]2C[C@](O)(C(C)O)Cc3c(O)c4c(c(O)c32)C(=O)c2c(O)cccc2C4=O)CC(NC=O)C1O (some centres not stated)
dose: 1.0 micrograms/kg/injection, vehicle: saline
  T/C: 126 % of control

## COc1ccc(/C=C(\C)[N+](=O)[O-])cc1OC
dose: 50.0 mg/kg/injection, vehicle: other
  survivor count: 9 of 10
dose: 100.0 mg/kg/injection, vehicle: other
  survivor count: 8 of 10

## CN=S(=O)(OCCCCCOS(=O)(=NC)c1ccccc1)c1ccccc1 (configuration not stated)
dose: 12.0 mg/kg/injection, vehicle: saline with Tween-80
  T/C: 134 % of control
dose: 48.0 mg/kg/injection, vehicle: saline with Tween-80
  survivor count: 10 of 10
dose: 50.0 mg/kg/injection, vehicle: saline with Tween-80
  T/C: 129 % of control
dose: 100.0 mg/kg/injection, vehicle: saline with Tween-80
  survivor count: 6 of 10
dose: 200.0 mg/kg/injection, vehicle: saline with Tween-80
  survivor count: 3 of 10
dose: 400.0 mg/kg/injection, vehicle: saline with Tween-80
  survivor count: 0 of 10

## O=S1(=O)CC(Cl)(Br)C1 (tested in a mixture with another compound)
[1]
  survivor count: 2 of 10
[2]
  survivor count: 0 of 10

## CCCCNC1=C(N2CC2)C(=O)C(NCCCC)=C(N2CC2)C1=O
dose: 5.0 mg/kg/injection, vehicle: saline
  T/C: 134 % of control
[3]
  T/C: 136 % of control [9 of 10 alive]

## COc1cc2c[n+](C)c3c4cc5c(cc4ccc3c2cc1OC)OCO5 (tested in a mixture with another compound)
dose: 3.13 mg/kg/injection, vehicle: Klucel (hydroxypropylcellulose) (HPC)
  T/C: 126 % of control
dose: 6.25 mg/kg/injection, vehicle: Klucel (hydroxypropylcellulose) (HPC)
  T/C: 141 % of control
dose: 6.25 mg/kg/injection, vehicle: distilled water + Tween-80
  T/C: 132 % of control
[3]
  T/C: 130 % of control
dose: 12.5 mg/kg/injection, vehicle: Klucel (hydroxypropylcellulose) (HPC)
  T/C: 131 % of control
dose: 20.0 mg/kg/injection, vehicle: saline
  T/C: 142 % of control
dose: 25.0 mg/kg/injection, vehicle: Klucel (hydroxypropylcellulose) (HPC)
  T/C: 141 % of control
[4]
  survivor count: 10 of 10

## Nc1ncc(CNc2ccc(C(=O)NC(CCC(=O)O)C(=O)O)cc2)c(N)n1 (configuration not stated)
[4]
  survivor count: 9 of 10
[1]
  survivor count: 10 of 10
[2]
  survivor count: 10 of 10

## C=CCCC(=O)CCCC(=O)O[C@@H]1[C@@H]2[C@H](CC1(C)C)[C@H](O)[C@@]13O[C@@H]1[C@H](O)[C@@]1(CO1)[C@@]23C
dose: 25.0 micrograms/kg/injection, vehicle: Klucel (hydroxypropylcellulose) (HPC)
  T/C: 134 % of control

## [Cl][Pt+2][Cl].[NH-]C1CCC1.[NH2-]
dose: 6.0 mg/kg/injection, vehicle: saline
  survivor count: 10 of 10
dose: 12.0 mg/kg/injection, vehicle: saline
  survivor count: 1 of 10

## C/C=C(\C)C(=O)N/N=C\c1cc(Cl)cc(Cl)c1O
dose: 12.5 mg/kg/injection, vehicle: olive oil, sesame oil, peanut oil
  survivor count: 10 of 10 (2×)
dose: 25.0 mg/kg/injection, vehicle: olive oil, sesame oil, peanut oil
  survivor count: 10 of 10
dose: 50.0 mg/kg/injection, vehicle: olive oil, sesame oil, peanut oil
  survivor count: 10 of 10 (2×)
dose: 100.0 mg/kg/injection, vehicle: olive oil, sesame oil, peanut oil
  survivor count: 10 of 10
dose: 200.0 mg/kg/injection, vehicle: olive oil, sesame oil, peanut oil
  survivor count: 10 of 10
dose: 400.0 mg/kg/injection, vehicle: olive oil, sesame oil, peanut oil
  survivor count: 2 of 10 and 9 of 10
